{
  "sequences": {"note": "Chains of the proteins cited; added tags and fusions are not shown.", "UniProt P47806": "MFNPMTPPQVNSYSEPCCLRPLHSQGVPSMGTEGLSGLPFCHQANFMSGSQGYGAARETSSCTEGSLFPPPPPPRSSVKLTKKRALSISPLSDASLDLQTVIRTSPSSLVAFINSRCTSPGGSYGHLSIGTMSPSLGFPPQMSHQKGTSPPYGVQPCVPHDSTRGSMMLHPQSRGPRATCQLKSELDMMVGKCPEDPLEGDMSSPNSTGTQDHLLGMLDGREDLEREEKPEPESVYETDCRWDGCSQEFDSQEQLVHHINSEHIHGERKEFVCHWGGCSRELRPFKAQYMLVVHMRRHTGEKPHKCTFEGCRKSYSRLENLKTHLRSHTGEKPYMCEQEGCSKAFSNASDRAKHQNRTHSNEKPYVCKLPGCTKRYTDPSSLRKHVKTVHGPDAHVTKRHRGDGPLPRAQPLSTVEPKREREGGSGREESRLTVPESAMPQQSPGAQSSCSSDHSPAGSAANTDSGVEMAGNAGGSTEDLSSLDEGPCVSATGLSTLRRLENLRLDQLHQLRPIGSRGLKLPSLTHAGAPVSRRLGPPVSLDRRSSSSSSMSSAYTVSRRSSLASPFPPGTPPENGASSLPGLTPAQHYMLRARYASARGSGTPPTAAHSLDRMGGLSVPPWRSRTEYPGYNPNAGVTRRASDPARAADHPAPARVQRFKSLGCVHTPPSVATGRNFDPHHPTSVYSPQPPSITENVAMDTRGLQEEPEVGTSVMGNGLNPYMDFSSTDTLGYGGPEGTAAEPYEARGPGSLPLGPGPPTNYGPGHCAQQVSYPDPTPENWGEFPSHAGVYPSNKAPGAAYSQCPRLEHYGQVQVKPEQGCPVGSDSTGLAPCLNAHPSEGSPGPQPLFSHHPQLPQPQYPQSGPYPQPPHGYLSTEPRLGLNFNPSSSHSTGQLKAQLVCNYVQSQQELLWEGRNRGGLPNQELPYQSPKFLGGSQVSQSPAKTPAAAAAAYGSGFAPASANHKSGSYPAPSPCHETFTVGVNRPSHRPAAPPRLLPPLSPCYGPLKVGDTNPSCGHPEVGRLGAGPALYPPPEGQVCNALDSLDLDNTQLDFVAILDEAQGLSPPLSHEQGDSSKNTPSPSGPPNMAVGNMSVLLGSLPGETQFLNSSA", "UniProt P13864": "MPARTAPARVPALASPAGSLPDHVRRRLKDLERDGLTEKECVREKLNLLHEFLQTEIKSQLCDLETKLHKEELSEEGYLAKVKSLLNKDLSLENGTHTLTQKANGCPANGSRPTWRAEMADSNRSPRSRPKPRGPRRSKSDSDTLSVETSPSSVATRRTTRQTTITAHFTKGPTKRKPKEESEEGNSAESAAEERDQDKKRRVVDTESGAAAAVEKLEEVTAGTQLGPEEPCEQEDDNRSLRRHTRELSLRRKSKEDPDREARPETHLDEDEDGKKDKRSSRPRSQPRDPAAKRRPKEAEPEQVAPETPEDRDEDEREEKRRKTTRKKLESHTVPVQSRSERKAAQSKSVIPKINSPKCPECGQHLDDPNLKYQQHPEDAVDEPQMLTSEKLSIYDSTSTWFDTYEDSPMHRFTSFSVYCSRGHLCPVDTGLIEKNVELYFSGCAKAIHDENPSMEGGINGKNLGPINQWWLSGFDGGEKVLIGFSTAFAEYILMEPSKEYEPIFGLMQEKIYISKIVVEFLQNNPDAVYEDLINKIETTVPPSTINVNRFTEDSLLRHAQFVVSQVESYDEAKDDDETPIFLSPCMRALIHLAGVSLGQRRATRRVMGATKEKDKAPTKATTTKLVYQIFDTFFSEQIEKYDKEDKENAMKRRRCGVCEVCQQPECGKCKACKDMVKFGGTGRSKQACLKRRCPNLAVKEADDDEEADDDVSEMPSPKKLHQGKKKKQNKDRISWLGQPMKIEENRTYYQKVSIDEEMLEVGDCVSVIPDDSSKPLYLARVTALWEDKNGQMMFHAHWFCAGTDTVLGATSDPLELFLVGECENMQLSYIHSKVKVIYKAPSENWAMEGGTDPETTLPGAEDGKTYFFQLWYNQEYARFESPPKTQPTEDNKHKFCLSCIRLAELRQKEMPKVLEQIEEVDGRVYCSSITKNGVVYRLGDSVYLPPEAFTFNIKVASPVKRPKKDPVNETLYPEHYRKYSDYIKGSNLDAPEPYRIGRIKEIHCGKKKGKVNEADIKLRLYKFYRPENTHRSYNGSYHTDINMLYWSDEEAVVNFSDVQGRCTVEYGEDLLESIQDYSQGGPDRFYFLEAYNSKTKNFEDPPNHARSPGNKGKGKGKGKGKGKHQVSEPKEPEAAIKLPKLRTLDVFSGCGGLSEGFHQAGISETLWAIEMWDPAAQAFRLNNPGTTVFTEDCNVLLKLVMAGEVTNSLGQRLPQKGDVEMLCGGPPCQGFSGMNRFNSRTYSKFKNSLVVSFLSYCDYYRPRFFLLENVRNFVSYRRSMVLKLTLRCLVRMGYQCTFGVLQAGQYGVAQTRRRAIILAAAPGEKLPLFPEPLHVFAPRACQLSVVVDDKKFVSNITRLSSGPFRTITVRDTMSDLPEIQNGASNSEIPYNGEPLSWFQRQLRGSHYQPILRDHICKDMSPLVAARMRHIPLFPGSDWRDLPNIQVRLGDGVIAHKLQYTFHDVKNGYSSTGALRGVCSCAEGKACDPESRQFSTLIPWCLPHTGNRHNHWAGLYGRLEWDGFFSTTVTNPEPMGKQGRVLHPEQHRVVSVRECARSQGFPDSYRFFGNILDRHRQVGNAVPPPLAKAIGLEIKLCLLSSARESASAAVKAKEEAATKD"},
  "source": "paper PMC10627516",
  "target": "Glioma-associated oncogene homolog 1 (GLI1) (mouse (endogenous in murine macrophages, RAW264.7 or BMMs)) (UniProt P47806)",
  "assay": "co-IP; cells in the resting state lysed in RIPA buffer with protease inhibitor; anti-GLI1 antibody (Santa Cruz sc-515751) overnight at 4 °C, protein A agarose beads, washed with RIPA buffer; blots with DNMT1 and DNMT3a antibodies",
  "note": "No constants are given. Whether binding was seen depends on the method and setting. In cells and extracts the contact can be indirect. Some binding calls cover weakened binding; strength is not graded here.",
  "data": [
    {"substance": "DNA methyltransferase 1 (DNMT1) (from UniProt P13864 1-1620) (enzyme)", "values": [
      {"measurement": "binding", "result": "binds"}
    ]}
  ]
}
